# Library screening results

Data taken from ChEMBL document CHEMBL3988442, “University of Dundee, Small-Polar-MMV Screening Library” (2021).

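Viability assay of Plasmodium falciparum sporozoites; the read-out is not stated. The concentration is filed as 10 mM, unlikely as a test dose, so the dose is not known. Direction is inferred from retests: higher values go with lower viability. Strong results were mostly tested again. Size under these conditions: about 34,000 compounds, about 280 of them at 50% or above in at least one test.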

The filed quantity is “Percent Effect” (%). The record does not define 0% and 100%; most values in the screen are far below 50% and negative numbers occur (in some assays of this library far below -100). Compounds were drawn at random from those tested, without regard to their results.

{"structure": "c1cc(CN2CCCC(c3nnc(-c4cnccn4)o3)C2)ccn1", "stereo": "stereo not shown", "effect": 8.33}
{"structure": "CCN1CCN(C(C)CNC(=O)Nc2nnc(C)s2)CC1", "stereo": "stereo not shown", "effect": -9.257}
{"structure": "CN1CCCC1CCNC(=O)c1ccccc1-n1cc(CN)cn1", "stereo": "stereo not shown", "effect": 0.1283}
{"structure": "CC(=O)N1CCC(C(=O)N(C)[C@@H]2CCC[C@@H](N3CCCC3)[C@@H]2O)CC1", "effect": -8.412}
{"structure": "CCN(CC)C(=O)CN1CCCC(c2nc(C)c3c(n2)N(C)CCC3)C1", "stereo": "stereo not shown", "effect": 2.558}
{"structure": "CC(=O)NCCN1CCC(c2cccs2)CC1", "effect": -20.66}
{"structure": "CN1CCN(Cc2ccccc2CNC(=O)c2ccc(Br)cc2F)CC1", "effect": -0.2307}
{"structure": "CCC(=O)N1CCN(C(=O)CCn2cccn2)CC1", "effect": 2.59}
{"structure": "Cc1c(F)cccc1CN1CCn2nc(CNC(=O)N(C)C)cc2C1", "effect": -1.143}
{"structure": "[H][C@@]12CC[C@H](Oc3ccc(Cl)cc3)[C@]1([H])CN(C(=O)Cn1ccnc1)C2", "effect": 0.1999}
{"structure": "CN(C)Cc1ccnc(C2CN(CCCc3ccccc3)CCO2)n1", "stereo": "stereo not shown", "effect": 6.529}
{"structure": "Br.O=C(CN(C1=NCCCC1)c1ccccc1)c1ccc2c(c1)OCCO2", "effect": -8.629}
{"structure": "Cc1cc(I)c2c(c1)C(=O)C(CN1CCCC1)(CN1CCCC1)CO2", "effect": 7.943}
{"structure": "CC(C)(C)CN1CCC(c2nccnc2Nc2cnccn2)CC1", "effect": -0.3197}
{"structure": "Cc1cnc(C(=O)N2CCC3(CCN3Cc3ccc(F)cc3)C2)cn1.O=C(O)C(F)(F)F", "stereo": "stereo not shown", "effect": -1.013}
{"structure": "CN(C(=O)c1ccnn1C)[C@@H]1CCC[C@@H](Oc2ccccc2)[C@@H]1O", "effect": 4.838}
{"structure": "CCCS(=O)(=O)N1C[C@@H](c2ccccc2)[C@@]2(CCNC2=O)C1", "effect": 13.7}
{"structure": "Cl.Cn1nc(C2CCCN(Cc3ccc(F)cc3)C2)c2nccnc21", "stereo": "stereo not shown", "effect": 3.206}
{"structure": "CCC1c2ccsc2CCN1Cc1cc2c(cc1OC)OCCO2", "stereo": "stereo not shown", "effect": -8.395}
{"structure": "COc1ccc(CN2CCC3(CC2)NC(=O)CC3c2ccncc2)cc1.O=C(O)C(F)(F)F.O=C(O)C(F)(F)F", "stereo": "stereo not shown", "effect": -13.53}
{"structure": "CCCc1n[nH]c(C2CN(C(=O)c3cc(C4CC4)on3)CCO2)n1", "stereo": "stereo not shown", "effect": -0.9848}
{"structure": "CCc1nccn1C1CCCN(C(=O)c2ccc3c(c2)nnn3C)C1", "stereo": "stereo not shown", "effect": 13.6}
{"structure": "CNC(=O)CC1CC2(CCN(S(C)(=O)=O)CC2)c2ccccc21", "stereo": "stereo not shown", "effect": -20.92}
{"structure": "Cc1nc(C2CCCN(C(=O)c3cc(C(C)(C)C)on3)C2)no1", "stereo": "stereo not shown", "effect": 11.07}
{"structure": "Cn1cc(C2NC3(CCCC3)C(=O)N2CC2CC2)c(=O)n(C)c1=O", "stereo": "stereo not shown", "effect": -1.956}
{"structure": "Cc1cc(C(=O)N2CCc3c(CN(C)C)nn(C)c3C2)[nH]n1", "effect": 0.5415}
{"structure": "CC(C)CNC(=O)c1c(-n2cnnn2)sc2c1CCC2", "effect": 0.5637}
{"structure": "Cc1[nH]ccc1C(=O)N1CCCC(c2nccn2Cc2cscn2)C1", "stereo": "stereo not shown", "effect": -1.351}
{"structure": "O=C(NC1CC1)N1CCC2(CC1)C(=O)NCCN2Cc1ccccc1.O=C(O)C(F)(F)F", "effect": 3.764}

3 of the entries, repeated:

| structure | effect |
|---|---|
| `Cc1cnc(C(=O)N2CCC3(CCN3Cc3ccc(F)cc3)C2)cn1.O=C(O)C(F)(F)F` (stereo not shown) | -1.013 |
| `c1cc(CN2CCCC(c3nnc(-c4cnccn4)o3)C2)ccn1` (stereo not shown) | 8.33 |
| `CC(C)CNC(=O)c1c(-n2cnnn2)sc2c1CCC2` | 0.5637 |